# The other results are listed elsewhere or left out. Single values are uncertain here, since repeats match poorly.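 The human kidney-derived cells carry a stably integrated construct of eight TEAD-binding elements driving luciferase, read by luminescence in a drug-repurposing library screen. A compound counts as a hit when its signal is more than five robust Z scores above the plate mean.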
# System: HEK293A TEAD-LUC reporter
# Assay: TEAD-luciferase reporter activity (YAP activation), robust Z score vs plate; higher = stronger YAP/TEAD activation
# Conditions: 24 h
SMILES,TEAD-luciferase reporter activity (compound concentration: 200 nM),TEAD-luciferase reporter activity (compound concentration: 10 uM),TEAD-luciferase reporter activity (compound concentration: 2 uM)
CCN(CC)CCOC(=O)C1(c2ccccc2)CCCC1 [Caramifenio],inactive: -1.3,inactive: 0.0573,
CCN(CC)CCOC(=O)C1(c2ccccc2)CCCC1,,,inactive: -1.14
"N=C(NCCCCCCNC(=N)NC(=N)Nc1ccc(Cl)cc1)NC(=N)Nc1ccc(Cl)cc1 [chlorhexidine dressing, Hercon]",inactive: -1.15,inactive: 0.0267,
N=C(NCCCCCCNC(=N)NC(=N)Nc1ccc(Cl)cc1)NC(=N)Nc1ccc(Cl)cc1 [chlorhexidine dressing],,,inactive: -1.82
"COc1ccccc1OCC(O)CO (stereo not given) [guaifenesin, Elan]",inactive: -1.3,inactive: 2.72,inactive: -1.23
CSc1ccc(Cc2c(O)n[nH]c2C(F)(F)F)cc1,inactive: -1.21,inactive: 4.99,inactive: -1.38
CC(=O)NC(CS)C(=O)O (stereo not given) [nacystelyn],,,inactive: -0.724
CC(=O)NC(CS)C(=O)O (stereo not given),inactive: -0.862,inactive: -1.49,
CCN(CC)CCn1cnc2c1c(=O)n(C)c(=O)n2C,inactive: -0.0299,inactive: 2.39,inactive: 2.14
Cc1nnnn1/N=C/c1ccc(O)c(C(c2ccc(O)cc2)c2cc(/C=N/n3nnnc3C)ccc2O)c1,inactive: 0.148,active: 8.34,inactive: 0.803
CCn1cc(C(=O)O)c(=O)c2cc3occc3nc21,inactive: -0.0548,inactive: -1.36,inactive: 0.0778
CCCCCCCCCCCCCCCCNc1ccc(C(=O)O)cc1 [cetaben sodium],inactive: 0.238,inactive: 0.0274,inactive: 0.213
CN1CCC(C(=O)N2CCC(n3c(=O)[nH]c4ccccc43)CC2)CC1,inactive: -1.92,inactive: 2.87,
CNC(=O)c1c(-c2ccc(F)cc2)oc2cc(N(c3cc(Cl)c4c(c3)COB4O)S(C)(=O)=O)c(C3CC3)cc12,inactive: -0.803,inactive: -1.05,inactive: -0.774
CSCC[C@H](N)C(=O)N[C@@H](CCC(=O)O)C(=O)N[C@@H](Cc1cnc[nH]1)C(=O)N[C@@H](Cc1ccccc1)C(=O)N1CCC[C@H]1C(=O)NCC(=O)N1CCC[C@H]1C(=O)O,inactive: -1.78,inactive: -1.12,inactive: -0.637
COc1cccc(S(=O)(=O)N2CC(N(C)c3ccccc3C)C2)c1,inactive: 1.08,inactive: 0.091,
O=C(O)c1cc2cc(O)ccc2n1Cc1ccc(Cl)c(C(F)(F)F)c1,inactive: 0.425,inactive: 0.466,inactive: -1.23

# Single values from the entries so far.
# Under TEAD-luciferase reporter activity (compound concentration: 2 uM), CSc1ccc(Cc2c(O)n[nH]c2C(F)(F)F)cc1 is listed with inactive: -1.38
# Under TEAD-luciferase reporter activity (compound concentration: 2 uM), N=C(NCCCCCCNC(=N)NC(=N)Nc1ccc(Cl)cc1)NC(=N)Nc1ccc(Cl)cc1 [chlorhexidine dressing] is listed with inactive: -1.82

# From the supplement of paper PMC10735217
